# Measured values: ChEMBL document CHEMBL5308504, “Tm Shift (DSF) assay results for EUbOPEN Chemogenomics Library” (2023)
# Sequences of proteins named here, by UniProt entry; tags and fusion partners are left off. A change or cut given only in a name is not applied to a line headed by its entry.
# UniProt P00519, whole entry: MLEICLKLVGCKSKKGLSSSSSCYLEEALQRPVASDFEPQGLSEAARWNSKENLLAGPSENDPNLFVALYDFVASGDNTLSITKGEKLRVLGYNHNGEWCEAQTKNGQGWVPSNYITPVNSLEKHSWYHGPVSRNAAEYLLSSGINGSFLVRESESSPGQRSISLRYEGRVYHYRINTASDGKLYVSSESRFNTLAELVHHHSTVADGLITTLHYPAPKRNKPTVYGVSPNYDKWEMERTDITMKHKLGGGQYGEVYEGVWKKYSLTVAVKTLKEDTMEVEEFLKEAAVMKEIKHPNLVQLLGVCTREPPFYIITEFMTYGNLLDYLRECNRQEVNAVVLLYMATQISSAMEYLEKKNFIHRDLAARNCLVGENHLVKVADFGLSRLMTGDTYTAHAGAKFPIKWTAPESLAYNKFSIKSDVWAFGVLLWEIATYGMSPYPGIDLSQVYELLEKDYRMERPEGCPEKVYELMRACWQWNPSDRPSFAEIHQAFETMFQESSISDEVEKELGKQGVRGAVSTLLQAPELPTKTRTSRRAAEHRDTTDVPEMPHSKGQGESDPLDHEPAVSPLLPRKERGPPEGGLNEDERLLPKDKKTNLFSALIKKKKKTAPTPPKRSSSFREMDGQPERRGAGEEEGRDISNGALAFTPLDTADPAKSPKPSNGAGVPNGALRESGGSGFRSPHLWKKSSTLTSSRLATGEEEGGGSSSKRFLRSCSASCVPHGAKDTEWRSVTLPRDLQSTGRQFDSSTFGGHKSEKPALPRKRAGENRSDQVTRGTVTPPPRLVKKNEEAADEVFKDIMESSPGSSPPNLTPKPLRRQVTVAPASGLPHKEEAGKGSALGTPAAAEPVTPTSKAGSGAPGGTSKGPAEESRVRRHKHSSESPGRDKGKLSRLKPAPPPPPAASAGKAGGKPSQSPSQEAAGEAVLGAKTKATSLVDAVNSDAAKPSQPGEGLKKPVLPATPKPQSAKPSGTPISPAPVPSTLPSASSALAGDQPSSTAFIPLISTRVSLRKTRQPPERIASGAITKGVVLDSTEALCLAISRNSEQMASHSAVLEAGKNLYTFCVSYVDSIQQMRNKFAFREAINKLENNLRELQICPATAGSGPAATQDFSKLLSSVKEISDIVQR
# UniProt P48730: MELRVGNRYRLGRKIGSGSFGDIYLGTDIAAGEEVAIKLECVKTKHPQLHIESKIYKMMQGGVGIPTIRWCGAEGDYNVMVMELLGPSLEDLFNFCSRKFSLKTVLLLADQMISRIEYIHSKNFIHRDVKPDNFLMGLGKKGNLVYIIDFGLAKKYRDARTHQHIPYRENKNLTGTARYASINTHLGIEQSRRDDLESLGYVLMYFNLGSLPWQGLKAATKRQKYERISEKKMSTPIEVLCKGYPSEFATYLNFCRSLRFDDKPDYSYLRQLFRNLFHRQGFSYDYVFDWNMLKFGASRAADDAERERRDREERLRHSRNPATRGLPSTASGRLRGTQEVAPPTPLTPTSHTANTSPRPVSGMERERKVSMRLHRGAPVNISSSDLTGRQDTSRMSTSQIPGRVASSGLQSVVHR
# UniProt P49841: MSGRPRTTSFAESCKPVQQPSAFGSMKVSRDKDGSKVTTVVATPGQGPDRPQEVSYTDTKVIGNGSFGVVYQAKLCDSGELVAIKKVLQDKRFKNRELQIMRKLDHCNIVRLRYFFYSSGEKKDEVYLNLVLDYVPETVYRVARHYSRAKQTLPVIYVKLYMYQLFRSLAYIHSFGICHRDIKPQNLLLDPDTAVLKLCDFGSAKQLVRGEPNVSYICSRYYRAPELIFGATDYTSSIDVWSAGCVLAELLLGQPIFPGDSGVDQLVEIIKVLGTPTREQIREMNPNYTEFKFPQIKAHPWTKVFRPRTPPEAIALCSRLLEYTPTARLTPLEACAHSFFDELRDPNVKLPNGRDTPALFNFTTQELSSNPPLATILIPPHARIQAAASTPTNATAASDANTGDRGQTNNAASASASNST
# UniProt P28482, whole entry: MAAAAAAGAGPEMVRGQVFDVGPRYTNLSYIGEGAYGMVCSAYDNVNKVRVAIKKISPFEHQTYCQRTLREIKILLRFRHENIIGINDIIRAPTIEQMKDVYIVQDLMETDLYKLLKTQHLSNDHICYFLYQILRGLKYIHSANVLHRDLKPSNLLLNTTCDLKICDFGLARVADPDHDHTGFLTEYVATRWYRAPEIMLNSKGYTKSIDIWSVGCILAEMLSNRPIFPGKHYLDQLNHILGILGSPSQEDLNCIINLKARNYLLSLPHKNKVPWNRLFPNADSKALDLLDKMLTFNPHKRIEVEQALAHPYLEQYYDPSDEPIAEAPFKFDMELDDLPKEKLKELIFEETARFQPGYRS
# For part of these data: Shown are results outside the selection of highest values, which stands elsewhere. For part of these data: Shown are results outside the selection of lowest values, which stands elsewhere.
# How the values were obtained:
# Settings in all cases: Compound concentration 20.0 uM, Protein concentration 2.0 uM, Result type QC Liability
# [1] = target: Tyrosine-protein kinase ABL1 (Homo sapiens) (UniProt P00519)
# [2] = target: Cyclin-dependent kinase 2 (Homo sapiens) (UniProt P24941)
# [3] = target: Casein kinase I isoform delta (Homo sapiens) (UniProt P48730)
# [4] = target: Glycogen synthase kinase-3 beta (Homo sapiens) (UniProt P49841)
# [5] = target: Mitogen-activated protein kinase 1 (Homo sapiens) (UniProt P28482)
# [6] = target: T1, Aurora kinase A (Homo sapiens) (UniProt O14965)
# T1 sequence (whole entry): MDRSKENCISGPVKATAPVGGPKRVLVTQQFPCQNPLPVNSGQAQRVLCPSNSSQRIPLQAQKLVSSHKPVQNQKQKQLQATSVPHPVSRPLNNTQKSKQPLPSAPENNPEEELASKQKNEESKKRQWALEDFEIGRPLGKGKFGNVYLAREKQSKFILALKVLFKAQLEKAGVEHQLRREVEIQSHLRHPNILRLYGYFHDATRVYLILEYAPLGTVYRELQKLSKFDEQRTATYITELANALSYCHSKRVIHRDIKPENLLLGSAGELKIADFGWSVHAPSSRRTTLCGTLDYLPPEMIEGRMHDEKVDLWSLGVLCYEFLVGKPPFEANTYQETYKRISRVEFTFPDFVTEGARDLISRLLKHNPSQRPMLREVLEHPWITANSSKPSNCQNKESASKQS
smiles,measurement,setting,value
C[C@@H]1C[C@H](N)C[C@H](c2ccncc2NC(=O)c2ccc(F)c(-c3c(F)cccc3F)n2)C1,ΔTm,[1],1.24 °C
same,ΔTm,[2],0.66 °C
same,ΔTm,[3],0.51 °C
same,ΔTm,[4],7.41 °C
same,ΔTm,[5],0.39 °C
same,ΔTm,[6],0.62 °C
